Taken from: PubChem BioAssay AID743454 (Peter MacCallum Cancer Centre, 2014)

Assay: 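Knock-downs lowering viability or raising caspase 3/7 activity in vorinostat-treated resistant cells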 (primary screen)
Cell system: human HCT116-VR colon cancer cells, selected for vorinostat resistance
Reagent: siRNA pool against human genes, 40 nM siRNA pool
Duration: vorinostat for 24 h, read-out about 72 h after transfection
Conditions: vorinostat at 2.5 µM final
Measured: 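Two measures, CellTiter-Fluor viability and luminescent caspase 3/7 activity, each as fold change against same-plate mock wells, mean of duplicates, then screen-wide robust z-score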
Scale: viability robust z-score: higher = more viable cells than screen typical; caspase robust z-score: higher = more caspase 3/7 activity than screen typical
Call rule: 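a knock-down is a hit when classed RV1 or RV2 for lowered viability, or CA1 or CA2 for caspase activation; those lethal without drug were dropped; hits were retested singly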
Shown is a random part of about 18,000 reagents. Over the whole deposit, 450 (2.5%) are marked active. 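Single biological run; no consistent viability z cut-off exists, so the class columns, not z-scores, define the calls.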 Unmarked entries are inactive.

target gene | viability hit class | caspase hit class | viability robust z-score | caspase robust z-score
HMGN4 (GeneID 10473) | no change | no change | -2.7 | 0.78
PPP1R12C (GeneID 54776) | no change | no change | -0.35 | -0.14
RALGDS (GeneID 5900) | no change | no change | 1.03 | -0.18
CLIC3 (GeneID 9022) | no change | no change | -0.54 | -0.5
GTF2E1 (GeneID 2960) | no change | no change | -1.62 | 3.34
PRKN (GeneID 5071) | no change | no change | 1.05 | 4.26
KLHL23 (GeneID 151230) | no change | no change | 0.92 | -0.18
CCDC90B (GeneID 60492) | no change | no change | 1.1 | -0.7
PCDHGA7 (GeneID 56108) | no change | no change | -0.06 | 0.29
TENM1 (GeneID 10178) | no change | no change | 1.29 | 1.54
SYCE1 (GeneID 93426) | no change | no change | 1.5 | -0.56
PIK3C2G (GeneID 5288) | no change | no change | 0.54 | 1.28
DUX4L1 (GeneID 22947) | no change | no change | 0.86 | -0.74
SORBS3 (GeneID 10174) | no change | no change | 0.21 | 0.38
UPF1 (GeneID 5976) | no change | no change | -0.33 | 1.22
CPOX (GeneID 1371) | no change | no change | 0.84 | -0.09
CHST14 (GeneID 113189) | no change | no change | 0.2 | -0.64
PRTN3 (GeneID 5657) | no change | no change | -4.05 | 1.29
MAP1LC3B (GeneID 81631) | no change | no change | 0.15 | -0.48
OR8H2 (GeneID 390151) | no change | no change | -1.62 | 0.05
ZBTB7A (GeneID 51341) | no change | no change | 0.06 | -0.44
CALM2 (GeneID 805) | RV2 (reduced viability) (active) | no change | -3.44 | 2.4
COA8 (GeneID 84334) | no change | no change | -0.48 | 0.31
SLC52A3 (GeneID 113278) | no change | no change | 0.62 | -0.28
RBP3 (GeneID 5949) | no change | no change | -0.69 | 0.9
C3orf18 (GeneID 51161) | no change | no change | 0.23 | 2.28
PHACTR4 (GeneID 65979) | no change | no change | -1.9 | -0.46
RGS12 (GeneID 6002) | no change | no change | 0.62 | 1.59
CDR2 (GeneID 1039) | no change | no change | 1.02 | -0.18
SLCO2A1 (GeneID 6578) | no change | no change | 0.5 | -0.79
TAAR9 (GeneID 134860) | no change | no change | -1.04 | 0.16
MAGEA11 (GeneID 4110) | no change | no change | 0.44 | 0.87
FSCB (GeneID 84075) | no change | no change | 0.3 | 2.18
ZNG1F (GeneID 644019) | no change | no change | 0.26 | -0.32
RFLNA (GeneID 144347) | no change | no change | -2.54 | 1.75
NCF2 (GeneID 4688) | no change | no change | -0.21 | 0.24
ZCWPW2 (GeneID 152098) | no change | no change | -0.19 | -0.32
GPR137B (GeneID 7107) | no change | no change | -0.1 | -0.75
CTSA (GeneID 5476) | no change | no change | -1.07 | 1.81
EFCAB3 (GeneID 146779) | no change | no change | 0.07 | -0.76
CSPG4 (GeneID 1464) | no change | no change | 0.29 | 0.97
RNASE4 (GeneID 6038) | no change | no change | 0.52 | -0.68
ZBTB3 (GeneID 79842) | no change | no change | 0.24 | 0.08
FAM131A (GeneID 131408) | no change | no change | 1.6 | 0.34
ZNF354B (GeneID 117608) | no change (active) | CA1 (caspase activation) | 0.17 | 5.96
SLAMF8 (GeneID 56833) | no change | no change | -0.69 | 1
TOB1 (GeneID 10140) | no change | no change | -0.02 | 4
ARRDC5 (GeneID 645432) | no change | no change | 1.2 | 0.56
MOS (GeneID 4342) | no change | no change | 1.02 | -0.08
NUDT3 (GeneID 11165) | no change | no change | 0.68 | -0.18
ENTPD1 (GeneID 953) | no change | no change | -0.57 | 2.38
SLC25A28 (GeneID 81894) | no change | no change | 0.28 | -0.1
MTMR2 (GeneID 8898) | no change | no change | -0.36 | 0.37
TGFB1I1 (GeneID 7041) | no change | no change | 0.09 | -1.05
ECSIT (GeneID 51295) | no change | no change | 0.32 | -0.77
EIF3E (GeneID 3646) | no change | no change | -2.26 | -1
WARS2 (GeneID 10352) | no change | no change | 0.34 | -0.32

Reprinted from the entries so far, 8 entries:
target gene | viability hit class | caspase hit class | viability robust z-score | caspase robust z-score
ZNG1F (GeneID 644019) | no change | no change | 0.26 | -0.32
RFLNA (GeneID 144347) | no change | no change | -2.54 | 1.75
NCF2 (GeneID 4688) | no change | no change | -0.21 | 0.24
ZCWPW2 (GeneID 152098) | no change | no change | -0.19 | -0.32
GPR137B (GeneID 7107) | no change | no change | -0.1 | -0.75
CTSA (GeneID 5476) | no change | no change | -1.07 | 1.81
EFCAB3 (GeneID 146779) | no change | no change | 0.07 | -0.76
CSPG4 (GeneID 1464) | no change | no change | 0.29 | 0.97
